Data published in paper PMC6053445.
The exact form of at least one protein or probe is not confirmed. At least one verdict was read from the data and is not stated in words by the source. Where a protein sequence is shown, tags need not be part of it.

Target: T1, Sap1 (Schizosaccharomyces pombe) (UniProt P40847)
T1 sequence (looked up, limits assumed): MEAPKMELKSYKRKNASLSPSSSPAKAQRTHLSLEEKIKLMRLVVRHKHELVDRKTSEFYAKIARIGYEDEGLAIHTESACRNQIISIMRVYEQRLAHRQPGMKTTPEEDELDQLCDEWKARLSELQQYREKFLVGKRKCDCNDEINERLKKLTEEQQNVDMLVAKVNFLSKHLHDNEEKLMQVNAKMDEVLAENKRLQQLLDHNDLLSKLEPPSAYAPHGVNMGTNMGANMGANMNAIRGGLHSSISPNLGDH
Test: EMSA
Settings: Kd not in the text, see Fig. S3B,C; EMSA: protein 0.68-5120 nM (dilution buffer 10 mM HEPES pH 7.5, 100 mM NaCl, 5% glycerol) in 20 mM HEPES pH 7.6, 50 mM KCl, 3 mM MgCl2, 8% glycerol, 0.2% NP-40; recombinant protein; label: 32P

**Q.** Does “AACCAGGGATTCAGTGCAGCTATCTTG (double strand) [Ter1]” bind?
**A.** binds

**Q.** Does “AGCAATACTACACTACGCTATAATACACTACGTTGAGTATCACTATATGT (double strand) [Tf2]” bind?
**A.** binds
